The nature of this assay: qHTS Assay for Lipid Storage Modulators in Drosophila S3 Cells.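 For cell number change: cells counted by Cell Tracker Red CMTPX staining in the red channel.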 The note with it: BODIPY lipid droplet fluorescence, 18-24 h; for cell number change: measured here: cell count max response, cells fed with added oleic acid. The essentials: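 Laser-scanning cytometry quantifies lipid droplet accumulation (500–530 nm total intensity; droplet/cell object ratio) in oleic acid-fed (400 uM added) Drosophila S3 cells treated with a concentration series. 20 uM Triacsin C defined 100% inhibition.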

Where [1] appears, read: measured here: cell number channel AC50, cells fed with added oleic acid.
The mark [2] stands for this setting: measured here: lipid fluorescence (Fed channel) AC50, cells fed with added oleic acid.

The list shows a part of the results. These are further read-outs of the screen, such as a control signal, another cell line or another target. No call is given for them. Most of these compounds were active or inconclusive in the main read-out, so they are no random draw. Potencies come from curve fits of mixed quality, noted in brackets.

As to `O=C(COC(=O)c1cncc(Br)c1)NCc1ccc(F)cc1`, the AC50 – broadly, the concentration giving half of the maximal activity seen – under setting [1] was 0.116 µM [falling, full curve, poor fit].

For `CCOC(=O)C1=C(C)N(C)C(=S)NC1c1ccc(Cl)cc1Cl` (stereo not given), the cell number change was -11.9%. The AC50 under setting [2] was 6.51 µM [rising, partial curve, poor fit].

As for `CCN(CC(=O)Nc1ccc(NC(C)=O)cc1)C(=O)C1CCCC1`, the cell number change stood at 9.49%. Moreover, the AC50 under setting [2] is 0.517 µM [rising, partial curve, poor fit].

Regarding `CCN1CN(Cc2ccccc2)CNC1=S`, the cell number change was -7.22%. Further, under setting [2], the AC50 is 0.00461 µM [falling, full curve, poor fit].

With `O=C(CS(=O)(=O)c1ccc(Cl)cc1)NCCS(=O)(=O)c1ccc(Cl)cc1`, the AC50 under setting [1] was 0.731 µM [rising, single point].

Consider `COc1ccc(/C=N/NS(C)(=O)=O)c(OC)c1`, for which the cell number change is -5.47%. Under setting [2], the AC50 was 11.6 µM [rising, partial curve, poor fit].

As to `CCCc1ccc(NS(=O)(=O)c2c(C)oc(C)c2C(=O)OC)cc1`, the AC50 under setting [2] is 2.59 µM [rising, partial curve].

For the molecule `Cc1ccc2c(c1)N(CC(=O)N1CCOCC1)C(=O)C(C)O2` (stereo not given), the cell number change amounted to 15%. Further, the AC50 under setting [2] was 29.1 µM [rising, single point].

Regarding `C=C(C)Cn1c(C)cc(C)c(S(=O)(=O)c2ccc(C)cc2)c1=O`, the AC50 under setting [2] is 0.116 µM [rising, full curve, poor fit].

Regarding `Fc1ccc(Nc2nc(N3CCOCC3)nc(N3CCOCC3)n2)cc1Cl`, the cell number change came out at 21.5%. Besides, the AC50 under setting [2] is 4.11 µM [falling, full curve].

With `COc1ccccc1CNC(=O)C1COc2ccccc2O1` (stereo not given), the concentration at half-maximal activity (AC50) under setting [2] was 16.4 µM [rising, partial curve].

Turning to `CCc1nnc(N/N=C\c2ccc(OC(C)=O)c(OC)c2)n1N`, the cell number change was -13.1%. Under setting [2], the AC50 was 29.1 µM [falling, single point].

As for `N/C(=N\NC(=O)c1cccs1)c1cc2ccccc2oc1=O`, the cell number change worked out at 18.9%. For the same molecule, the AC50 under setting [1] was 0.731 µM [rising, full curve, poor fit].

Regarding `CC1CCCC(C)N1C(=O)c1ccc(S(=O)(=O)N2CCCC2)cc1` (stereo not given), the cell number change is -31.6%. In addition, under setting [1], the AC50 is 4.11 µM [falling, partial curve, poor fit].

As for `CC(C)CC(=O)NC(=S)NNC(=O)c1cccc([N+](=O)[O-])c1`, the cell number change came out at 8.79%. Moreover, the half-maximal activity concentration (AC50) under setting [2] was 14.6 µM [rising, single point].

With `C=CCOc1nc2c(c(=O)n(Cc3ccc(Cl)cc3)c(=O)n2C)n1C`, the cell number change was determined as 2.37%. Moreover, under setting [2], the AC50 is 0.366 µM [rising, full curve, poor fit].

`Cc1ccc(CSc2nc3c(cc2C#N)CCC3)cc1`: the cell number change amounted to 10.8%. Moreover, the AC50 under setting [2] was 13 µM [rising, single point].

Turning to `COc1cccc(/C=N/Nc2ncnc3scc(-c4ccccc4)c23)c1O`, the cell number change is -23.1%. Also, the half-maximal activity concentration (AC50) under setting [2] is 29.1 µM [falling, single point].

Consider `Cc1ccccc1CSc1nnnn1-c1ccc(C(N)=O)cc1`, for which the cell number change was determined as 23.9%. Moreover, the AC50 under setting [2] is 4.11 µM [rising, full curve].

`Cc1ccc(NC(=O)Nc2cccc3ccccc23)cc1`: the cell number change was -12.9%.

Turning to `CCn1cc(C(=O)N2CCc3ccccc3C2)c(=O)c2cc(S(=O)(=O)N3CCCCC3)ccc21`, the cell number change stood at 8.94%. Moreover, the AC50 under setting [2] is 0.82 µM [falling, single point].

On to `CCn1c(/C=C/c2ccccc2C)nc2ccccc2c1=O`, for which the cell number change was -12.5%. Moreover, under setting [1], the concentration at half-maximal activity (AC50) is 0.164 µM [falling, full curve, poor fit]. In addition, the AC50 under setting [2] was 0.116 µM [falling, full curve, poor fit].

As to `NC(=O)C1CCN(C(=S)NCc2ccc3c(c2)OCO3)CC1`, the cell number change was -18.7%. Further, the AC50 under setting [1] was 2.91 µM [falling, single point]. The concentration at half-maximal activity (AC50) under setting [2] was 3.66 µM [falling, full curve].

As to `CSCCC(NC(=O)COc1ccccc1)C(=O)NCc1cccs1` (stereo not given), the cell number change was -20.2%. Further, the AC50 under setting [2] was 6.51 µM [falling, single point].

On to `NS(=O)(=O)c1ccc(Nc2nc(-c3ccc4ccccc4c3)cs2)cc1`, for which the cell number change is -8.52%. Moreover, the AC50 under setting [1] is 0.259 µM [rising, full curve, poor fit]. The AC50 under setting [2] is 0.146 µM [rising, full curve, poor fit].

In the case of `Clc1ccc(/C=N/N2CCN(Cc3ccccc3Cl)CC2)cc1`, the cell number change was -9.89%. For the same molecule, the AC50 under setting [2] is 6.51 µM [rising, partial curve, poor fit].

On to `COc1ccccc1N1CCN(C(=O)C2CCN(S(=O)(=O)c3ccc4c(c3)CC(C)N4C(=O)C3CC3)CC2)CC1` (stereo not given), for which the cell number change came out at 19.7%. Further, the AC50 under setting [2] was 5.8 µM [falling, single point].

For the molecule `COc1ccc(Nc2sc(C(=O)Nc3cccc(Cl)c3)c(N)c2C(=O)Nc2ccccc2OC)cc1`, the cell number change is -44.8%. Also, the half-maximal activity concentration (AC50) under setting [1] was 18.4 µM [falling, single point]. Also, the AC50 under setting [2] is 18.4 µM [falling, single point].

For the molecule `Cc1ccc(CN2CC(C(=O)Nc3cc(S(C)(=O)=O)ccc3Cl)CC2=O)cc1` (stereo not given), the cell number change worked out at 47.4%.

With `Cn1ccnc1C(O)c1cc(C(C)(C)C)c(O)c(C(C)(C)C)c1` (stereo not given), the cell number change stood at 38.8%. The AC50 under setting [1] was 18.4 µM [rising, single point]. Further, under setting [2], the AC50 is 2.31 µM [falling, partial curve, poor fit].

Regarding `O=C(CNS(=O)(=O)c1cccc2nsnc12)NCCc1ccccc1`, the cell number change is -3.82%. The AC50 under setting [2] was 29.1 µM [falling, single point].

On to `CC(=O)c1cc2c(cc1NC(=O)Cn1nc(-c3ccc(C)cc3)ccc1=O)OCO2`, for which the cell number change was -26.9%.

As to `COc1ccc(C2(c3ccc(OC)cc3)NC(=O)N(CC(=O)N(C)C3CCC(C)CC3)C2=O)cc1` (stereo not given), the cell number change turned out to be 27.8%. In addition, under setting [2], the AC50 was 7.31 µM [rising, partial curve].

Take `N/C(=N\OS(=O)(=O)c1ccc(Br)cc1)c1ccncc1`: the cell number change amounted to 0.103%. For the same molecule, the AC50 under setting [2] is 13 µM [rising, single point].

With `O=C(NC1CC2CCCC(C1)N2C1CC1)NC12CC3CC(CC(C3)C1)C2` (stereo not given), the cell number change worked out at 12.6%. Moreover, under setting [2], the AC50 is 6.51 µM [falling, single point].

Turning to `COc1ccc(C(CC(=O)c2ccccc2)C2CCCCC2=O)cc1` (stereo not given), the cell number change worked out at 55.5%.

With `COc1cccc(/C=C/c2nc(S(=O)(=O)c3ccccc3)c(N(C)C)o2)c1`, the AC50 under setting [2] is 5.8 µM [rising, single point].

As for `Cc1ccc(C)c(S(=O)(=O)N2CCN(CC(=O)Nc3sccc3C#N)CC2)c1`, the cell number change is -41.8%. Besides, the AC50 under setting [1] was 2.31 µM [falling, partial curve, poor fit]. The AC50 under setting [2] was 13 µM [falling, partial curve].

Regarding `O=C(Nc1ccc(OCc2ccccc2)cc1)c1cccnc1`, the cell number change is 73.7%. The AC50 under setting [1] is 4.11 µM [rising, full curve]. For the same molecule, the AC50 under setting [2] is 14.6 µM [rising, partial curve].

On to `O=C(NCc1ccc2c(c1)OCO2)Nc1ccc([N+](=O)[O-])cc1`, for which the cell number change was 2.48%. In addition, the half-maximal activity concentration (AC50) under setting [1] was 0.411 µM [rising, single point].

As for `CC(C)CCn1c(=O)c2sccc2n2c(CCCC(=O)N3CCN(c4ccccn4)CC3)nnc12`, the cell number change is -32.7%. The AC50 under setting [1] is 5.8 µM [falling, partial curve, poor fit]. In addition, the AC50 under setting [2] is 4.11 µM [falling, partial curve].

`COc1ccc(N(C(=O)c2ccc(C)cc2)S(=O)(=O)c2cccs2)cc1`: the AC50 was 2.31 µM [rising, single point] under setting [1] and 20.6 µM [rising, single point] under setting [2].

Consider `O=C1CCc2cc(NS(=O)(=O)c3cc(F)ccc3F)cc3c2N1CC3`, for which, under setting [2], the AC50 is 0.13 µM [falling, full curve, poor fit].

In the case of `CCc1ccc(Nc2nnc(SCC(=O)NC(=O)CN3CCCC3=O)s2)cc1`, the cell number change is -22.6%. Further, under setting [1], the AC50 is 3.66 µM [falling, single point]. Moreover, the AC50 under setting [2] is 2.31 µM [falling, partial curve, poor fit].

Turning to `CCOc1ccc(Br)cc1/C(C)=N\NC1=NCCN1`, the cell number change was -58.6%. For the same molecule, the AC50 under setting [1] is 10.3 µM [falling, partial curve, poor fit]. Further, under setting [2], the AC50 was 6.51 µM [rising, partial curve].

For the molecule `COc1ccccc1C(=O)Nc1ccc(S(=O)(=O)N2CCOCC2)cc1`, the AC50 under setting [2] was 0.517 µM [rising, partial curve, poor fit].

For `NC(=O)c1ccc(N2CCCCC2)c(N2C(=O)CCC2=O)c1`, the cell number change is -31.1%. Further, under setting [2], the AC50 was 29.1 µM [falling, single point].

Consider `O=C(CNC(=O)OCc1ccccc1)Oc1cc2oc(=O)cc(-c3ccccc3)c2cc1Cl`, for which the cell number change was found to be 5.59%. Also, under setting [1], the AC50 is 6.51 µM [falling, single point]. Also, under setting [2], the concentration at half-maximal activity (AC50) was 6.51 µM [falling, single point].

On to `C=CC[n+]1c(-c2ccc(OCC)cc2)csc1NNC(=O)Nc1ccccc1`, for which the cell number change was -55.7%. Also, the AC50 under setting [1] was 1.64 µM [rising, partial curve]. Moreover, the AC50 under setting [2] is 1.84 µM [rising, partial curve].

In the case of `O=c1oc2cc(O)ccc2cc1-c1ccccc1`, the cell number change was determined as 29.3%. Further, the AC50 under setting [2] is 18.4 µM [rising, single point].

Regarding `CC1c2cc3c(cc2CCN1C(=O)c1cccc(F)c1)OCCCO3` (stereo not given), the cell number change is 7.37%. Further, the AC50 under setting [2] is 4.11 µM [rising, partial curve, poor fit].

For `CC1(c2cccc(Br)c2)NC(=O)N(CC(=O)Nc2ccc(F)cc2)C1=O` (stereo not given), the cell number change turned out to be 26.7%. Further, the AC50 under setting [2] was 0.00461 µM [rising, full curve, poor fit].

Turning to `COc1cc(/C=C\C(=O)O)cc(S(=O)(=O)N2CCCCCC2)c1OC`, the cell number change is -10.5%.

Regarding `Cc1c(C(=O)N2CCC2)oc2ccc(Br)cc12`, the cell number change was found to be 56.5%. In addition, the AC50 under setting [1] is 16.4 µM [rising, partial curve]. Besides, the AC50 under setting [2] is 16.4 µM [rising, partial curve].

In the case of `COc1ccc2c3c(c(=O)oc2c1OCC(=O)C(C)(C)C)CCCC3`, the cell number change worked out at 33.9%. The AC50 under setting [1] was 1.64 µM [rising, partial curve, poor fit].

Turning to `COc1ccc2nc(SCC(=O)N(C)CC(=O)Nc3ccc(F)cc3)[nH]c2c1`, the cell number change was -1.32%. Further, under setting [2], the AC50 was 1.03 µM [falling, full curve].

Take `O=C1CSC(=Nc2ccccc2[N+](=O)[O-])N1`: the cell number change was -52%. In addition, under setting [1], the AC50 is 0.651 µM [falling, full curve]. For the same molecule, the AC50 under setting [2] is 1.46 µM [falling, full curve].

The record behind these values is PubChem BioAssay AID2685 (National Center for Advancing Translational Sciences (NCATS), 2010).
